Experimental data reported in paper PMC4175184, “Structure and function of cohesin’s Scc3/SA regulatory subunit” (Febs Letters, 2014).
Substitutions are numbered along the chain they refer to. Names and notes keep the numbering of the source. These are yes or no findings as the source states them, for the method shown. Some results given as binding are weak or reduced against the parent protein; the word gives no strength. For some of these results: Where a sequence is shown, tags or fusion partners need not be part of it. Blank lines part the entries; values can stand above or below the binder they belong to.

Tests used:
[1] = molecular target: T1, S. cerevisiae Wapl (S. cerevisiae) (UniProt Q99359); assay: SEC; data not shown; gel filtration as for E202K; both purified
T1 sequence: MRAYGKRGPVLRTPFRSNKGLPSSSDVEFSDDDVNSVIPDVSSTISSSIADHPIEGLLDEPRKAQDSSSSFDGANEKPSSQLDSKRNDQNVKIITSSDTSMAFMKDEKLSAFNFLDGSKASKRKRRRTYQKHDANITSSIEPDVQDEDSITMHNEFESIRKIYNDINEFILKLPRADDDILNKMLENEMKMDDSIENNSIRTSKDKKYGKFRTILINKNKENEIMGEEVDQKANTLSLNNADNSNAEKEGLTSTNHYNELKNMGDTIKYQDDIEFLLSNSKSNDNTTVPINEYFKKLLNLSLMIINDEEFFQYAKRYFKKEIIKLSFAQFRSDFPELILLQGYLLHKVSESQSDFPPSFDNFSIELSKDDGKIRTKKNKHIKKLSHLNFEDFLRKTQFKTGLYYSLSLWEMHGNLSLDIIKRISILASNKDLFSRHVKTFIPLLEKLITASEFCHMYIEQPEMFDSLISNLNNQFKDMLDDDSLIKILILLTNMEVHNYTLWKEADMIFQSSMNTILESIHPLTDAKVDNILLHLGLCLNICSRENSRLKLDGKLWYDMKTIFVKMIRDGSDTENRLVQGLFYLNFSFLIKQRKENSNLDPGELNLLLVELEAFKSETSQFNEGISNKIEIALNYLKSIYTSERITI

[2] = molecular target: T1, S. cerevisiae Wapl (S. cerevisiae); assay: SEC; 15 μM of each pure protein incubated at 4 °C for 2–3 h in 150 μl TAP buffer, Superdex 200 10/300; fractions by SDS–PAGE and Coomassie staining; both purified
[3] = molecular target: T2, S. cerevisiae Scc3, two differently tagged versions (S. cerevisiae), P40541; assay: pull-down; two differently tagged Sc Scc3 proteins, pure proteins mixed in an equimolar ratio; 5 μM of each in TAP buffer, resin 2 h at 4 °C (Fig. 2-fig^1B); both purified; details: remark: other sources report otherwise
T2 chain: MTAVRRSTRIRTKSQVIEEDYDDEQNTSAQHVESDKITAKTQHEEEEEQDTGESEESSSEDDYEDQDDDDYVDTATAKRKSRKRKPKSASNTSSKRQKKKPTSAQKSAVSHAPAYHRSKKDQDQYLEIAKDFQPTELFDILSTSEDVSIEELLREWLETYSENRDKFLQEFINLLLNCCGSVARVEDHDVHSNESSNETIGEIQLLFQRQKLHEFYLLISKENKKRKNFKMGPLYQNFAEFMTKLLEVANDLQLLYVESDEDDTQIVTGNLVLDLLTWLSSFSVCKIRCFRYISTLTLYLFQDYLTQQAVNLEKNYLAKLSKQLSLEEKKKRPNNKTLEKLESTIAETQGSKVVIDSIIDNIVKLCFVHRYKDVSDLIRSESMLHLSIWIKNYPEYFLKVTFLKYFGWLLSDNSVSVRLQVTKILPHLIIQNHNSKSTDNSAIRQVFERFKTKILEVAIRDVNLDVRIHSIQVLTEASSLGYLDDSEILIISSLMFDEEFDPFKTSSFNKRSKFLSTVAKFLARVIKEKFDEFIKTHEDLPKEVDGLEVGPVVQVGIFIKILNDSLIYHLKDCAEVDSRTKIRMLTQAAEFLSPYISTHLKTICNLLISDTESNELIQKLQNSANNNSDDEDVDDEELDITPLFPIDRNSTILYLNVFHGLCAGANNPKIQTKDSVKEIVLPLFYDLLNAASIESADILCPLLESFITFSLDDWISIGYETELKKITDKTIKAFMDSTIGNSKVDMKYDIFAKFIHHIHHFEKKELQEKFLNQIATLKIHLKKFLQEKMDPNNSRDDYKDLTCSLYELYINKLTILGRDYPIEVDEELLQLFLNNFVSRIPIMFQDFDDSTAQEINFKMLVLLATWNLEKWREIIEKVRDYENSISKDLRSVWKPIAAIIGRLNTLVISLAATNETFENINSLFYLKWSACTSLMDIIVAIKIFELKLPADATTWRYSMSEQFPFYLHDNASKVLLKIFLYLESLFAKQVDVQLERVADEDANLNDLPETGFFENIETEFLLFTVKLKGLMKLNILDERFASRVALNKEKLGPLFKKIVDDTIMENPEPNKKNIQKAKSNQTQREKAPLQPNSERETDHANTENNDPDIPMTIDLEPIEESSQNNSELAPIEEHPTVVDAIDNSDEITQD

[4] = molecular target: S. cerevisiae Scc1 (259–451), two differently tagged versions (S. cerevisiae) (UniProt Q12158); assay: pull-down; two differently tagged versions of Scc1 (259–451) in the presence of intact Scc3 protein; 5 μM of each in TAP buffer, resin 2 h at 4 °C (Fig. 2-fig^1C); both purified

B1: S. cerevisiae Scc3 D189E (protein, UniProt P40541 1-1150)
chain: T2 chain with D189E
- binding [1]: binds

B2: S. cerevisiae Scc3, full-length protein (protein, UniProt P40541 1-1150)
chain: T2 chain
- binding [2]: binds

B5: S. cerevisiae Scc3, two differently tagged versions, P40541 1-1150 (protein)
chain: T2 chain
- binding [3]: no binding (tested: 5 μM of each purified protein)

B7: S. cerevisiae Scc1 (259–451), two differently tagged versions (domain or fragment, UniProt Q12158 259-451, looked up)
chain: DDDNSVEQGRRLGESIMSEEPTDFGFDLDIEKEAPAGNIDTITDAMTESQPKQTGTRRNSKLLNTKSIQIDEETENSESIASSNTYKEERSNNLLTPQPTNFTTKRLWSEITESMSYLPDPILKNFLSYESLKKRKIHNGREGSIEEPELNVSLNLTDDVISNAGTNDNSFNELTDNMSDFVPIDAGLNEAPF
notes: source: E. coli BL21(DE3) RIPL, purified (Talon beads, Superdex 200)
- binding [4]: no binding (tested: 5 μM of each purified protein)

Results, then the binder that gave them:

- binding [2]: binds
B3: S. cerevisiae Scc3 E202K (protein, UniProt P40541 1-1150)
chain: T2 chain with E202K

- binding [1]: binds
B4: S. cerevisiae Scc3 R996S (protein, UniProt P40541 1-1150)
chain: T2 chain with R996S

- binding [1]: binds
B6: S. cerevisiae Scc3 R1043L (protein, UniProt P40541 1-1150)
chain: T2 chain with R1043L
